Results are given in words; binding and its absence hold for the method and conditions named. In cells and extracts the contact can be indirect. A yes stands for co-enrichment or nearness to the bait. Other partners may have been found.
Target: T1, eIFiso4E (Arabidopsis thaliana (endogenous in Col-0 plants)) (UniProt O04663)
T1 sequence: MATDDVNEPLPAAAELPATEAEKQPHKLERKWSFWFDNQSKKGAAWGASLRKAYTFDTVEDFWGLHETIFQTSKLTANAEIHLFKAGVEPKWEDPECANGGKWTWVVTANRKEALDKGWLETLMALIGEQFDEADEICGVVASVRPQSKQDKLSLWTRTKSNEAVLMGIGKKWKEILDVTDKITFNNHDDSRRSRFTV
Assay: affinity purification with mass spectrometry; gamma-aminophenyl-m7GTP (C10-spacer)-agarose beads incubated overnight at 4°C with whole-plant lysates (wild-type and eif4e1KO, mock or TuMV-inoculated, 21 dpi); binding buffer 100 mM HEPES pH 7.6, 5% glycerol, 50 mM KCl, 5 mM EDTA, 0.1% Triton X-100, 5 mM DTT; three washes; label-free nanoLC-MS/MS; blank agarose beads as negative control

By UniProt entry, the sequences of proteins in these tests, tags left out.
UniProt O82233: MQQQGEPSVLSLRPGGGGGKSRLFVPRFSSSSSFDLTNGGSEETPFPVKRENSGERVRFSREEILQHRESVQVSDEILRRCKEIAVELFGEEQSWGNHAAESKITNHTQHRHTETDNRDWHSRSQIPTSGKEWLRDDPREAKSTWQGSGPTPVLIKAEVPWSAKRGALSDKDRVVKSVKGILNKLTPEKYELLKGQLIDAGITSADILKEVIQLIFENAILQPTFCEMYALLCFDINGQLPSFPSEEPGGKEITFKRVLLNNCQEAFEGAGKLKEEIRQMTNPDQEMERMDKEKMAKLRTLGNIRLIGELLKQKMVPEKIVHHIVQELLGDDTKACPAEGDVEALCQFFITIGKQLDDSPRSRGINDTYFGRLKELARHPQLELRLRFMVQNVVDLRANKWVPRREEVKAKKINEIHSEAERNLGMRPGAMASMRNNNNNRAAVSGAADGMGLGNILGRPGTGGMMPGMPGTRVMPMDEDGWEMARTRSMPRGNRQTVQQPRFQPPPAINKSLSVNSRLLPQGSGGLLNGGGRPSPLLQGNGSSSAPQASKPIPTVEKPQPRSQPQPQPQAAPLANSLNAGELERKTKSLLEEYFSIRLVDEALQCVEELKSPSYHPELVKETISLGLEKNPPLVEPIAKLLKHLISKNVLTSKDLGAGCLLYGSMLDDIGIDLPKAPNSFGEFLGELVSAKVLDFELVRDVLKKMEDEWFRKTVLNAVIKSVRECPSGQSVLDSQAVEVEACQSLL
UniProt Q93ZT6: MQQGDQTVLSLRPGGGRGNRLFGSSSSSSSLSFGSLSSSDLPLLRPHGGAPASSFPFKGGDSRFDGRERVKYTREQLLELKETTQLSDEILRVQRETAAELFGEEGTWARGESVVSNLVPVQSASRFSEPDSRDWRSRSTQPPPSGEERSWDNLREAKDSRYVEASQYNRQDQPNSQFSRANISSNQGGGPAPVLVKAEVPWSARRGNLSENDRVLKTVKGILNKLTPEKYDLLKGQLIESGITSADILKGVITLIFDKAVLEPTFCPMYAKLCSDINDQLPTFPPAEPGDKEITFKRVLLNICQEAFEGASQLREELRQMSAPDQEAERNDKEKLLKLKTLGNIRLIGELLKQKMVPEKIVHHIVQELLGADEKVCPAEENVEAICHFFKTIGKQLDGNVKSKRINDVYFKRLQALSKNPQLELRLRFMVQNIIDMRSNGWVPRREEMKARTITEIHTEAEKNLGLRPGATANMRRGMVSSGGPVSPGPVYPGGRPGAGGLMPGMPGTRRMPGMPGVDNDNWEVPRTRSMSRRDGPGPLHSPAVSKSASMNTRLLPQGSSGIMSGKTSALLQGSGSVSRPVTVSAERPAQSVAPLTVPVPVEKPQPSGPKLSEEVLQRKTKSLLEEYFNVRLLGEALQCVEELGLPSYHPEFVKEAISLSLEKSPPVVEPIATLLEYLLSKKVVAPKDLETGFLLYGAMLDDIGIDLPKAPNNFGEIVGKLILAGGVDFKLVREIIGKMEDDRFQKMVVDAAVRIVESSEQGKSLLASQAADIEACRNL

| binding | Substance |
| --- | --- |
| binds | eIFiso4G2 (from UniProt O82233 1-747) |
| binds | eIFiso4G1 (from UniProt Q93ZT6 1-780) |

Reference: paper PMC10721207
